Data published in the supplement of paper PMC6411743.
± gives the standard deviation of the averaged measurements. This is a selection; strong and weak results do not stand in their true shares. Most entries show no effect beyond the scatter of the controls.

Chains of the proteins cited; added tags and fusions are not shown. Lines headed by an entry give the natural chain unless they say otherwise; changes in a name come on top.
UniProt O14745: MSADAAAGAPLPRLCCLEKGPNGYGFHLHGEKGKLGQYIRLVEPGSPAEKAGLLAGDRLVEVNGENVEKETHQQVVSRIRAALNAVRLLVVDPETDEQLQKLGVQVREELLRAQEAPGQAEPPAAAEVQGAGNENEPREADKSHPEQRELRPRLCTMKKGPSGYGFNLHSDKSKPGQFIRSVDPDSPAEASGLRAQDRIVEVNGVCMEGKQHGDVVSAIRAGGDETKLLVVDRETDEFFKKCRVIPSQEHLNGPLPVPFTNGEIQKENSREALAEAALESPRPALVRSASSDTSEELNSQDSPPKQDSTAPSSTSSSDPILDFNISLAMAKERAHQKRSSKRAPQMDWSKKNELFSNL
UniProt O14980, whole entry: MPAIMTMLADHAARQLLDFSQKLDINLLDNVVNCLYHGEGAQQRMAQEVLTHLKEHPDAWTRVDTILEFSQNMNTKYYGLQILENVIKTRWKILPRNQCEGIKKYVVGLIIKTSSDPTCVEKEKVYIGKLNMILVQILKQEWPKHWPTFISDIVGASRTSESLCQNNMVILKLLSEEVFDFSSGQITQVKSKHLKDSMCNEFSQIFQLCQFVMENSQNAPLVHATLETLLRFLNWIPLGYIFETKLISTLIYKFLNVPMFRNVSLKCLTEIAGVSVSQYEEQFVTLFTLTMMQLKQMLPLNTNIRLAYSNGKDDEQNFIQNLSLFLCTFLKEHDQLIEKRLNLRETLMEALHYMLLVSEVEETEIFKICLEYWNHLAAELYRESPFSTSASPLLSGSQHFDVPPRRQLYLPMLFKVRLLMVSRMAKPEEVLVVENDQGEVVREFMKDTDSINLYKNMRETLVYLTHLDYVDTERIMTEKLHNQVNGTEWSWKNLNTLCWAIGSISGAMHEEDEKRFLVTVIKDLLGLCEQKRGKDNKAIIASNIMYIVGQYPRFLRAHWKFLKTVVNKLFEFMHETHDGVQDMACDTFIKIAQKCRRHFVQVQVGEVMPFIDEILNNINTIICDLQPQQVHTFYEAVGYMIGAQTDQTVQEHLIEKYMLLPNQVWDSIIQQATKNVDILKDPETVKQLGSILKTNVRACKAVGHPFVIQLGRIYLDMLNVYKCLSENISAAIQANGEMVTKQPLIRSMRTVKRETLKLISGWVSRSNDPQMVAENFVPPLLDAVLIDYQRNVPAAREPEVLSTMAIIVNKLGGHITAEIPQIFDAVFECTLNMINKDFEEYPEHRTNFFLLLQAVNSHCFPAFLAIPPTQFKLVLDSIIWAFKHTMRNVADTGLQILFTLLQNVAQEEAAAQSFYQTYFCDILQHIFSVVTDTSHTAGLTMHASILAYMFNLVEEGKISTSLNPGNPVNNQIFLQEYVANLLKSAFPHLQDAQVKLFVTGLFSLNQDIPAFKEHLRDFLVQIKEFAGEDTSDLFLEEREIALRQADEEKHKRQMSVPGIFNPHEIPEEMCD
UniProt O14828: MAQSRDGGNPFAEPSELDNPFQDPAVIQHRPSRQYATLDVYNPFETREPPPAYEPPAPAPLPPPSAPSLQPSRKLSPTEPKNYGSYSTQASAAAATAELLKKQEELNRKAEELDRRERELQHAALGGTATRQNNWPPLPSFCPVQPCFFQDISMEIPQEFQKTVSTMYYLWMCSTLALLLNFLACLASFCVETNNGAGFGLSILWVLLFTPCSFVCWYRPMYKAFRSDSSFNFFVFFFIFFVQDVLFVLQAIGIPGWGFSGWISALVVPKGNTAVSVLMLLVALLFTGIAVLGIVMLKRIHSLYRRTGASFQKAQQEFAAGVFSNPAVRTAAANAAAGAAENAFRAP
UniProt Q96CP6, whole entry: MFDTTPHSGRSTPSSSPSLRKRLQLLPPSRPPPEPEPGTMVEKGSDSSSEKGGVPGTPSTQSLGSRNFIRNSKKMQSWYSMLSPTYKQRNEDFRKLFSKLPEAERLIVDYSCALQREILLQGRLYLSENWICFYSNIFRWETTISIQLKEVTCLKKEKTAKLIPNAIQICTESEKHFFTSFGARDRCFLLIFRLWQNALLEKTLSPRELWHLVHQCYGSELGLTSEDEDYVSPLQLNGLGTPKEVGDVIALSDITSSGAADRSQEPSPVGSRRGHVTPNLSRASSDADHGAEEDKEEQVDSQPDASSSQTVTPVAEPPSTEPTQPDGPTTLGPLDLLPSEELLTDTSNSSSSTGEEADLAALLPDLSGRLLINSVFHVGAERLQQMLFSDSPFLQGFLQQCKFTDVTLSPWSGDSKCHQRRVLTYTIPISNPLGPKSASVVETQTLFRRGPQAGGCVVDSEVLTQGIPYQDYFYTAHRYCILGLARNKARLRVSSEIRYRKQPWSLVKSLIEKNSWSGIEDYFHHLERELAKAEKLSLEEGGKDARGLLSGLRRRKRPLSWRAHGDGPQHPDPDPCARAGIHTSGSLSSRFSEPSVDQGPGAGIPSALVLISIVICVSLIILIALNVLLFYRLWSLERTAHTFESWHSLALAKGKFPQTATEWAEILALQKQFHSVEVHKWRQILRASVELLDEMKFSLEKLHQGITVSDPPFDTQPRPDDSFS
UniProt O00429, whole entry: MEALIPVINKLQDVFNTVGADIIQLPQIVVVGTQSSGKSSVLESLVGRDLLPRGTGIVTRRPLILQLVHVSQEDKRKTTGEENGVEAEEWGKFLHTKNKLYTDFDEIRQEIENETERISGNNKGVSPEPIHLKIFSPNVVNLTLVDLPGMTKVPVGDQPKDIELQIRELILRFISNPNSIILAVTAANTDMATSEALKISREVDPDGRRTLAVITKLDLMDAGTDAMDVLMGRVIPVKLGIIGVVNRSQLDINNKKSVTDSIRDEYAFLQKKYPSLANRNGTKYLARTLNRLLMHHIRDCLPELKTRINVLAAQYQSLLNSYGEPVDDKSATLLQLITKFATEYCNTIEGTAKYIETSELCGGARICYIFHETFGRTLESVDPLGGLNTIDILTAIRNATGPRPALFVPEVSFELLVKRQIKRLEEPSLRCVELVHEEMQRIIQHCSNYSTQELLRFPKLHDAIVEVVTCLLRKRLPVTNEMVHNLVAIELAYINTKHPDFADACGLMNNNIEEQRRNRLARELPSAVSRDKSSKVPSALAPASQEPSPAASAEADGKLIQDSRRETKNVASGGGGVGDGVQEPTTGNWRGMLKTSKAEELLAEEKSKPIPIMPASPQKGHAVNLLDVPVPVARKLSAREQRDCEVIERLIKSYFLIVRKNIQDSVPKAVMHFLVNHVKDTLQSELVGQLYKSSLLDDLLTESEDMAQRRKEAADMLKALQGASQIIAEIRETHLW
UniProt O00287: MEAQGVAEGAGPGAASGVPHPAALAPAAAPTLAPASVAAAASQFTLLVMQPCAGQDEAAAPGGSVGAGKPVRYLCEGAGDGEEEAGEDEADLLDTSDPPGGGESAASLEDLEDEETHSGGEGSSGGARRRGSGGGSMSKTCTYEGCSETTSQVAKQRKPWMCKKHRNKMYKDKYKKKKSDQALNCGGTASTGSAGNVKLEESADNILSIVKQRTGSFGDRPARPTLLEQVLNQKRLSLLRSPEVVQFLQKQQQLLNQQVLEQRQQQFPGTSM
UniProt O60318: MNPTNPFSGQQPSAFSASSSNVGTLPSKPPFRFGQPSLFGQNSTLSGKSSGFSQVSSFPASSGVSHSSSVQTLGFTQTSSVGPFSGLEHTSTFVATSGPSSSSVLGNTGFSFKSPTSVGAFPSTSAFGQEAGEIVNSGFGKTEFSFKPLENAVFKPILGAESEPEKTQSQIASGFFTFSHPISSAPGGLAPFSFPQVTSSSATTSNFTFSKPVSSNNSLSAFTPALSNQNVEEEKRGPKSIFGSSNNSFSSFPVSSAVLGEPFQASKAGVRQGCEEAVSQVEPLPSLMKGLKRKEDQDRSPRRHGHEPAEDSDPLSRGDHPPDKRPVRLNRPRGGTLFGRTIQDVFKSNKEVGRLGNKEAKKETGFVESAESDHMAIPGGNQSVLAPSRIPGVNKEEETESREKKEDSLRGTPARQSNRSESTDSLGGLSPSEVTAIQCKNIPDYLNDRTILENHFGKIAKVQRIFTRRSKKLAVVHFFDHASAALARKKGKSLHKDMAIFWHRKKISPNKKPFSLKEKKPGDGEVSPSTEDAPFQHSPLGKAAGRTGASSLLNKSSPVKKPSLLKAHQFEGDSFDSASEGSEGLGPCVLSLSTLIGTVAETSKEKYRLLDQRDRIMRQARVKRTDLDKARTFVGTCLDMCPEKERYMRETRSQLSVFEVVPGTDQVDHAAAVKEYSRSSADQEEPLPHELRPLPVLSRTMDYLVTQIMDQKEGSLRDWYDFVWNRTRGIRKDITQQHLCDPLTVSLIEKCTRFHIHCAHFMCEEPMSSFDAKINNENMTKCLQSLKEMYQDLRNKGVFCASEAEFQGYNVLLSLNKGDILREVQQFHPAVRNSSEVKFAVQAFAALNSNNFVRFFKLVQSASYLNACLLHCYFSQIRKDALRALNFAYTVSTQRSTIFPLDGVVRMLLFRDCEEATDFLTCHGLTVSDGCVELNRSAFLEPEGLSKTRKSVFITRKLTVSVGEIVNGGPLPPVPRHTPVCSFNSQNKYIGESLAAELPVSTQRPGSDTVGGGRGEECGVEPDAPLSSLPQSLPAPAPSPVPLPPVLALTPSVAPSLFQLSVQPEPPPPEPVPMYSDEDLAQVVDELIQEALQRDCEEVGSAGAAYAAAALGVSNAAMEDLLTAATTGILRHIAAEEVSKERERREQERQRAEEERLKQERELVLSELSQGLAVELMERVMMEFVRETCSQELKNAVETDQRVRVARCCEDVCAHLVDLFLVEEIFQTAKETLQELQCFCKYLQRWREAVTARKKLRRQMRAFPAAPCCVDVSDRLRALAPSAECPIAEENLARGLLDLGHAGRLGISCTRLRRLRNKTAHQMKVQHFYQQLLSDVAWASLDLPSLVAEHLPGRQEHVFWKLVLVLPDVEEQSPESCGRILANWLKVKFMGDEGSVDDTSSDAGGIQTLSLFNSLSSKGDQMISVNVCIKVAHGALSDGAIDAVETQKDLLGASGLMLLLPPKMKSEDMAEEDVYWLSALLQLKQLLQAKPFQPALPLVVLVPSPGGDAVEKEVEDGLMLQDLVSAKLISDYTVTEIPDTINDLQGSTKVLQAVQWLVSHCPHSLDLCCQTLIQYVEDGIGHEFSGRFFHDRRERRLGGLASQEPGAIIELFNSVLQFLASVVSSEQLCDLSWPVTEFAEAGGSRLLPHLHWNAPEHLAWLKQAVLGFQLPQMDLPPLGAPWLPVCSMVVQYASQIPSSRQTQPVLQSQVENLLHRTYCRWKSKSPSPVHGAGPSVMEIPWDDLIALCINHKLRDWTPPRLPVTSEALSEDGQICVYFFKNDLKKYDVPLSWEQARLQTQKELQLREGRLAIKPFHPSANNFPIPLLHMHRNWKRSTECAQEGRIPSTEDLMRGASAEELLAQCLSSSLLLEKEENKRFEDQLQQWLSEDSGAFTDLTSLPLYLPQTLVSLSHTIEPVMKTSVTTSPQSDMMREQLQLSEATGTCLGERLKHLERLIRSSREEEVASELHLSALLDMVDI
UniProt O15155: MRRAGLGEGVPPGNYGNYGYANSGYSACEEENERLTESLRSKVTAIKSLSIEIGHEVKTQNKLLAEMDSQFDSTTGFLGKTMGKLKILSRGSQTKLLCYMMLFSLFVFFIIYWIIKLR
UniProt O43760: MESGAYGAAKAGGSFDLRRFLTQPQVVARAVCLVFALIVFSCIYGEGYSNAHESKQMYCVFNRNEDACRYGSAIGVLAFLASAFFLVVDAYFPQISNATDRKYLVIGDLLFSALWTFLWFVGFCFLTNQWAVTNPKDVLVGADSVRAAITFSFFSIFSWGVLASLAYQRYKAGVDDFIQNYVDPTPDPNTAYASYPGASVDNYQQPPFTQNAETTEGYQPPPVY
UniProt O14763, whole entry: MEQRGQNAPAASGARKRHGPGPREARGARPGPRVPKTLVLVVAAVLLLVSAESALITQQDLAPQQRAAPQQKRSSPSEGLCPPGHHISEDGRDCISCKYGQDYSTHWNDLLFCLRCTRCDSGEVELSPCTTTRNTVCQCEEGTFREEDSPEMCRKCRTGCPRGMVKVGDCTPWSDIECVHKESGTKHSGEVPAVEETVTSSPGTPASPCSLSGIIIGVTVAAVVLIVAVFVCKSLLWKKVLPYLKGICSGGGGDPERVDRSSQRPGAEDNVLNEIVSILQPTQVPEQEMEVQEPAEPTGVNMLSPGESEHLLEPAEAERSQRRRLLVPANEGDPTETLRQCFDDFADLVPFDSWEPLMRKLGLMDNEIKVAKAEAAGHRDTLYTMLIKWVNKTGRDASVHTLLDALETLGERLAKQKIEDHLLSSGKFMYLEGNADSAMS
UniProt O00743: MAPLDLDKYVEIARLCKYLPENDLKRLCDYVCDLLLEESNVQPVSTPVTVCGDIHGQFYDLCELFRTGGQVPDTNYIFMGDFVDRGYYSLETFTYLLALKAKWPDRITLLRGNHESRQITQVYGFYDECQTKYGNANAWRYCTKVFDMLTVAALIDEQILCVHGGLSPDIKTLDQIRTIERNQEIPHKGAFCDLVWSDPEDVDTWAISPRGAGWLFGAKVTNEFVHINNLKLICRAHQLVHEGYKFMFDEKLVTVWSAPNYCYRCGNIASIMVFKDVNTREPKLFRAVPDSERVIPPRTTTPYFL

Compound: Nc1ncnc2c1ncn2[C@@H]1O[C@H](COP(=O)(O)OP(=O)(O)OP(=O)(O)O)[C@@H](O)[C@H]1O [adenosine triphosphate]
Experiment: NP40-soluble protein abundance relative to vehicle (solubility fold change) (ratio); higher = more soluble protein in presence of ATP
Method in brief: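 Across three independent experiments, values are fold changes against the detergent-processed vehicle for each replicate, based on vsn-normalised intensities. The samples were Jurkat crude lysate treated with eight concentrations (0.1 to 10 mM) for 10 min at room temperature and then 3 min at 37 °C. Lysate was solubilised with 0.8% NP40 and benzonase, ultracentrifuged, and the supernatant analysed by TMT-labelled LC-MS/MS.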

Target	NP40-soluble protein abundance (concentration: 0.1mM)	NP40-soluble protein abundance (concentration: 0.5mM)
SPTLC2 (UniProt O15270)	1.06 ± 0.061	1.02 ± 0.057
RNF13 (UniProt O43567)	0.966 ± 0.044	0.961 ± 0.035
SCAMP2 (UniProt O15127)	0.982 ± 0.065	0.969 ± 0.051
UniProt O43598 and related entries	0.939 ± 0.043	0.912 ± 0.061
SLC9A3R1 (UniProt O14745)	0.945 ± 0.014	0.953 ± 0.011
UniProt O00499-2|O00499-6|O00499-4|O00499-7|O00499-9	0.983 ± 0.025	0.987 ± 0.032
NDUFS4 (UniProt O43181)	0.963 ± 0.066	0.983 ± 0.069
M0R0F0 and related entries (UniProt P46782)	0.892 ± 0.13	0.891 ± 0.085
XPO1 (UniProt O14980)	1.02 ± 0.069	1.03 ± 0.026
UniProt O15085 and related entries	0.895 ± 0.12	0.891 ± 0.13
IFIT3 (UniProt O14879)	0.862 ± 0.1	0.896 ± 0.12
IGF2BP3 (UniProt O00425)	1 ± 0.051	1.03 ± 0.054
UniProt O15173 and related entries	0.91 ± 0.1	0.837 ± 0.14
UniProt O15111	1.05 ± 0.073	1.07 ± 0.033
TAF4 (UniProt O00268)	1 ± 0.11	1.07 ± 0.082
NPC1 (UniProt O15118)	0.997 ± 0.043	0.952 ± 0.067
PPIH (UniProt O43447)	1.01 ± 0.016	0.994 ± 0.019
OIP5 (UniProt O43482)	0.927 ± 0.17	0.844 ± 0.062
UniProt O14828 and related entries	0.979 ± 0.051	1 ± 0.042
MPHOSPH10 (UniProt O00566)	0.985 ± 0.04	0.978 ± 0.043

Target	NP40-soluble protein abundance (concentration: 0.1mM)	NP40-soluble protein abundance (concentration: 0.5mM)
SCO2 (UniProt O43819)	1.07 ± 0.068	1.03 ± 0.032
UniProt O14686 and related entries	0.973 ± 0.02	0.988 ± 0.041
PSMD9 (UniProt O00233)	0.945 ± 0.011	0.9668 ± 0.0094
M0QZ12 and related entries (UniProt Q96CP6)	1.02 ± 0.069	1.02 ± 0.083
UniProt O14974 and related entries	0.95 ± 0.034	1.01 ± 0.071
PIK3CD (UniProt O00329)	1.1 ± 0.12	1.06 ± 0.12
UniProt O00429 and related entries	0.994 ± 0.028	0.987 ± 0.012
ACOX3 (UniProt O15254)	1.06 ± 0.04	1.03 ± 0.066
RFXAP (UniProt O00287)	0.945 ± 0.059	0.866 ± 0.067
UniProt O14593 and related entries	1.02 ± 0.064	0.967 ± 0.1
UniProt O00267 and related entries	1.06 ± 0.037	1.06 ± 0.024
CASC3 (UniProt O15234)	0.97 ± 0.044	0.991 ± 0.072
UniProt O43278 and related entries	0.987 ± 0.064	0.971 ± 0.049
FADS1 (UniProt O60427)	0.99 ± 0.025	1.04 ± 0.034
PSMA7 (UniProt O14818)	0.955 ± 0.038	0.949 ± 0.042
MCM3AP (UniProt O60318)	1.02 ± 0.015	1.01 ± 0.09
EXTL3 (UniProt O43909)	0.962 ± 0.2	1.01 ± 0.024
RAD21 (UniProt O60216)	0.981 ± 0.026	0.993 ± 0.056
ZW10 (UniProt O43264)	1.04 ± 0.029	1.05 ± 0.032
NDUFA4 (UniProt O00483)	0.902 ± 0.076	0.915 ± 0.095

Single records, as listed above.
EXTL3 (UniProt O43909) is entered as NP40-soluble protein abundance (concentration: 0.1mM): 0.962 ± 0.2; NP40-soluble protein abundance (concentration: 0.5mM): 1.01 ± 0.024
UniProt O00267 and related entries is entered as NP40-soluble protein abundance (concentration: 0.1mM): 1.06 ± 0.037; NP40-soluble protein abundance (concentration: 0.5mM): 1.06 ± 0.024
RFXAP (UniProt O00287) is entered as NP40-soluble protein abundance (concentration: 0.1mM): 0.945 ± 0.059; NP40-soluble protein abundance (concentration: 0.5mM): 0.866 ± 0.067

Further records.

Target	NP40-soluble protein abundance (concentration: 0.1mM)	NP40-soluble protein abundance (concentration: 0.5mM)
UniProt O43172-2|O43172	1.1 ± 0.031	1.14 ± 0.051
UniProt O15117-2|O15117-3	0.982 ± 0.041	1.03 ± 0.061
UniProt O43684 and related entries	1.06 ± 0.062	1.11 ± 0.027
BET1 (UniProt O15155)	0.975 ± 0.052	1.02 ± 0.015
ZZEF1 (UniProt O43149)	1.03 ± 0.073	1.04 ± 0.085
UniProt O43829	1.02 ± 0.026	1.07 ± 0.029
PMM2 (UniProt O15305)	1.05 ± 0.068	1.05 ± 0.078
UniProt O14965 and related entries	1.05 ± 0.027	1.05 ± 0.051
B4GAT1 (UniProt O43505)	1.07 ± 0.059	1.04 ± 0.096
UniProt O43760 and related entries	0.908 ± 0.079	0.822 ± 0.15
PHGDH (UniProt O43175)	0.962 ± 0.035	0.969 ± 0.046
UniProt O14773 and related entries	0.912 ± 0.02	0.889 ± 0.045
STRN (UniProt O43815)	1.01 ± 0.043	0.998 ± 0.051
UniProt O14763 and related entries	0.93 ± 0.058	0.9535 ± 0.0039
UniProt O14880 and related entries	1.03 ± 0.049	1.1 ± 0.092
UniProt O00221 and related entries	0.917 ± 0.097	0.995 ± 0.097
DEGS1 (UniProt O15121)	1.1 ± 0.045	1.04 ± 0.013
ARPC3 (UniProt O15145)	0.979 ± 0.096	0.98 ± 0.12
UniProt O00743 and related entries	1.06 ± 0.12	1.04 ± 0.091
